Reference: PubChem BioAssay (NCATS)
The shares of active, inactive and inconclusive entries below differ from those in the screen. Potencies of inconclusive entries are doubtful fits and often do not repeat. Activity calls are given as the source filed them. Calls follow the shape of the dose curve; as a rule, active = well fitted curve in the direction sought with a large enough effect; inconclusive = small, poorly fitted or top-dose-only effect, or another doubt; inactive = no such curve, though single readings can be large; an effect the other way counts as inactive or inconclusive.

How the values were obtained:
[1] = Quantitative High-Throughput drug screen in 47 multiple myeloma cell lines against the NCATS MIPE library collection: Delta47_JCRB cell viability assay (AID 1918925; also: nearly all actives have a fitted effect of over 45% in size); conditions: Delta47 myeloma viability, CellTiter-Glo ATP, 48 h; viability (% of DMSO): at 45.8 µM (top of the series)
In short: (§1)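 Steps: seed 500 cells per well; pin-transfer MIPE 4.0 library; incubate 48 h at 37C, 5% CO2, humidified; add CellTiter-Glo, 5 min room temperature; read luminescence.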

[2] = Quantitative High-Throughput drug screen in 47 multiple myeloma cell lines against the NCATS MIPE library collection: AMO1_DSMZ cell viability assay (AID 1918927; also: nearly all actives have a fitted effect of over 30% in size)
In short: as §1

[3] = Quantitative High-Throughput drug screen in 47 multiple myeloma cell lines against the NCATS MIPE library collection: ARD_JJKsccE7 cell viability assay (AID 1918929); conditions: ARD myeloma cell line viability, CellTiter-Glo, 48 h; viability: at 45.8 µM (top of the series)
In short: as §1

[4] = Quantitative High-Throughput drug screen in 47 multiple myeloma cell lines against the NCATS MIPE library collection: Karpas620_DSMZ cell viability assay (AID 1918959); conditions: Karpas620 myeloma viability, CellTiter-Glo ATP luminescence, 48 h; viability (% of DMSO): at 45.8 µM (top of the series); also: nearly all actives have a fitted effect of over 30% in size
In short: (§2)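 Primary qHTS used for cherry-picking: cells at 500/well, library compounds for 48 h (37C, 5% CO2), luminescent ATP assay.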

[5] = Quantitative High-Throughput drug screen in 47 multiple myeloma cell lines against the NCATS MIPE library collection: KHM11_PLB cell viability assay (AID 1918962); conditions: KHM11 myeloma cell viability, CellTiter-Glo ATP luminescence, 48 h; viability, % of DMSO control: at 45.8 µM (top of the series); also: nearly all actives have a fitted effect of over 35% in size
In short: as §2

[6] = Quantitative High-Throughput drug screen in 47 multiple myeloma cell lines against the NCATS MIPE library collection: JIM1_ECACC cell viability assay (AID 1918964); conditions: JIM1 myeloma viability, CellTiter-Glo ATP luminescence, 48 h; viability (% of DMSO): at 45.8 µM (top of the series)
In short: as §1

[7] = Quantitative High-Throughput drug screen in 47 multiple myeloma cell lines against the NCATS MIPE library collection: INA6_PLB cell viability assay (AID 1918965; also: nearly all actives have a fitted effect of over 55% in size); conditions: INA6 myeloma viability, CellTiter-Glo ATP luminescence, 48 h; viability (% of control): at 45.8 µM (top of the series)
In short: (§3)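 We plated 500 myeloma cells per well, pinned in MIPE 4.0 compounds, and incubated for 48 hours at 37C. ATP was then quantified with CellTiter-Glo, with DMSO and media-only wells defining 100% and 0%.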

[8] = Quantitative High-Throughput drug screen in 47 multiple myeloma cell lines against the NCATS MIPE library collection: JJN3_DSMZ cell viability assay (AID 1918966; also: nearly all actives have a fitted effect of over 50% in size); conditions: JJN3 myeloma cells viability, CellTiter-Glo ATP, 48 h; viability, % of DMSO: at 45.8 µM (top of the series)
In short: as §1

[9] = Quantitative High-Throughput drug screen in 47 multiple myeloma cell lines against the NCATS MIPE library collection: H1112_PLB cell viability assay (AID 1918967; also: nearly all actives have a fitted effect of over 30% in size)
In short: as §1

[10] = Quantitative High-Throughput drug screen in 47 multiple myeloma cell lines against the NCATS MIPE library collection: Karpas25_ECACC cell viability assay (AID 1918968; also: nearly all actives have a fitted effect of over 35% in size); conditions: Karpas25 myeloma viability, CellTiter-Glo ATP, 48 h; viability (% of control): at 45.8 µM (top of the series)
In short: as §1

[11] = Quantitative High-Throughput drug screen in 47 multiple myeloma cell lines against the NCATS MIPE library collection: KMS27_JCRB cell viability assay (AID 1918970); conditions: KMS27 myeloma cells, CellTiter-Glo ATP viability, 48 h; viability (% of DMSO): at 45.8 µM (top of the series); also: nearly all actives have a fitted effect of over 30% in size
In short: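 Myeloma cells (500 per well) were exposed to MIPE 4.0 compounds for 48 h at 37 °C, 5% CO2; viability was read as ATP luminescence with CellTiter-Glo, normalized to DMSO-only (100%) and media-only (0%) wells.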

[12] = Quantitative High-Throughput drug screen in 47 multiple myeloma cell lines against the NCATS MIPE library collection: EJM_DSMZ cell viability assay (AID 1918926; also: nearly all actives have a fitted effect of over 30% in size)
In short: as §1

[13] = Quantitative High-Throughput drug screen in 47 multiple myeloma cell lines against the NCATS MIPE library collection: ARP1_JJKsccF8 cell viability assay (AID 1918928; also: nearly all actives have a fitted effect of over 40% in size)
In short: (§4)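 Here, 48 h treatment with MIPE 4.0 agents at 37 °C preceded an ATP luminescence read. Plating density was 500 cells per well.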

[14] = Quantitative High-Throughput drug screen in 47 multiple myeloma cell lines against the NCATS MIPE library collection: KMM1_JCRB cell viability assay (AID 1918960); conditions: KMM1 myeloma viability, CellTiter-Glo ATP luminescence, 48 h; viability (% of DMSO): at 45.8 µM (top of the series); also: nearly all actives have a fitted effect of over 30% in size;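 as to viability (% of DMSO): 100% = DMSO-treated cells and 0% = medium-only wells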
In short: as §4

[15] = Quantitative High-Throughput drug screen in 47 multiple myeloma cell lines against the NCATS MIPE library collection: Karpas417_ECACC cell viability assay (AID 1918961); conditions: Karpas417 myeloma viability, CellTiter-Glo ATP luminescence, 48 h; viability (% of DMSO): at 45.8 µM (top of the series)
In short: as §3

[16] = Quantitative High-Throughput drug screen in 47 multiple myeloma cell lines against the NCATS MIPE library collection: JIM3_ECACC cell viability assay (AID 1918963; also: nearly all actives have a fitted effect of over 35% in size)
In short: as §2
Potency is read from the fitted curve at half-maximal effect.

CO[C@H]1C(=O)[C@]2(C)[C@@H](OC)C[C@H]3OC[C@@]3(OC(C)=O)[C@H]2[C@H](OC(=O)c2ccccc2)[C@]2(O)C[C@H](OC(=O)[C@H](O)[C@@H](NC(=O)OC(C)(C)C)c3ccccc3)C(C)=C1C2(C)C
inactive: Potency [1] | Potency [7] | Potency [9] | Potency [10]
inconclusive: Potency [2] 1.32 µM [rising, full curve, poor fit] | Potency [3] 0.0332 µM [cytotoxic, full curve, poor fit] | Potency [4] 14.8 µM [rising, partial curve, poor fit] | Potency [5] 0.418 µM [rising, full curve, poor fit] | Potency [6] 0.332 µM [cytotoxic, full curve, poor fit] | Potency [8] 0.0019 µM [rising, full curve, poor fit] | Potency [11] 18.7 µM [rising, partial curve, poor fit]

CCCCCNC(=O)N1CCC(CN(Cc2ccc(Cl)cc2)Cc2ccc([N+](=O)[O-])s2)C1 (centres undefined)
inconclusive: Potency [1] 37.2 µM [cytotoxic, single point] | Potency [12] 23.5 µM [cytotoxic, partial curve] | Potency [13] 37.2 µM [cytotoxic, single point] | Potency [14] 18.7 µM [cytotoxic, partial curve] | Potency [15] 20.9 µM [cytotoxic, partial curve, poor fit] | Potency [5] 9.35 µM [cytotoxic, partial curve, poor fit] | Potency [16] 33.2 µM [cytotoxic, single point] | Potency [7] 20.9 µM [cytotoxic, partial curve, poor fit] | Potency [9] 20.9 µM [cytotoxic, partial curve]
active: Potency [11] 20.9 µM

CCc1ccc(C=C2SC(=S)NC2=O)cc1
inactive: Potency [1] | Potency [13] | Potency [5] | Potency [6]
inconclusive: Potency [2] 0.0042 µM [rising, full curve, poor fit] | Potency [3] 33.2 µM [cytotoxic, single point] | Potency [4] 37.2 µM [cytotoxic, single point] | Potency [14] 33.2 µM [cytotoxic, single point] | Potency [15] 26.4 µM [cytotoxic, partial curve, poor fit] | Potency [16] 33.2 µM [cytotoxic, single point] | Potency [8] 33.2 µM [cytotoxic, single point] | Potency [10] 26.4 µM [cytotoxic, single point] | Potency [11] 33.2 µM [cytotoxic, single point]

N=c1ccn2c(n1)O[C@H]1[C@@H](O)[C@@H](CO)O[C@H]12
inconclusive: Potency [1] 2.09 µM [cytotoxic, full curve] | Potency [2] 10.5 µM [cytotoxic, partial curve] | Potency [3] 5.9 µM [cytotoxic, partial curve, poor fit] | Potency [15] 9.35 µM [cytotoxic, full curve, poor fit] | Potency [5] 0.0935 µM [rising, full curve] | Potency [9] 13.2 µM [cytotoxic, partial curve] | Potency [10] 23.5 µM [cytotoxic, partial curve]
inactive: Potency [12] | Potency [16] | Potency [8]

COc1ccc(CC2=NN3C([C@@H](CCc4ccccc4)[C@@H](C)O)=NC(C)C3C(=O)N2)cc1OC (some centres undefined)
inconclusive: Potency [1] 11.8 µM [cytotoxic, single point] | Potency [3] 0.0047 µM [cytotoxic, full curve, poor fit] | Potency [15] 3.72 µM [rising, full curve, poor fit] | Potency [5] 1.87 µM [cytotoxic, full curve, poor fit] | Potency [16] 8.33 µM [cytotoxic, partial curve, poor fit] | Potency [6] 0.935 µM [cytotoxic, partial curve, poor fit] | Potency [7] 1.66 µM [cytotoxic, full curve, poor fit]
inactive: Potency [2] | Potency [8] | Potency [9]

CCCCc1ccc2nc(NC(=O)OC)[nH]c2c1
inconclusive: Potency [1] 0.0235 µM [cytotoxic, full curve] | Potency [4] 0.0021 µM [cytotoxic, full curve] | viability (% of DMSO) [14] 16.6% [cytotoxic] | Potency [5] 0.0209 µM [cytotoxic, full curve] | Potency [16] 0.0059 µM [cytotoxic, full curve] | viability (% of DMSO) [6] 25.8% [cytotoxic] | Potency [9] 0.0118 µM [cytotoxic, full curve] | viability (% of DMSO) [11] 38.9% [cytotoxic]
active: Potency [12] 0.0264 µM | Potency [3] 0.0093 µM

O=C1C(Cl)=C(NCCN2CCOCC2)C(=O)c2ncccc21
active: Potency [1] 7.43 µM | Potency [12] 7.43 µM | Potency [15] 3.32 µM | Potency [5] 9.35 µM | Potency [6] 2.96 µM | Potency [8] 3.72 µM

Two successive compounds out of the list so far, quoted:
CCc1ccc(C=C2SC(=S)NC2=O)cc1
inactive: Potency [1] | Potency [13] | Potency [5] | Potency [6]
inconclusive: Potency [2] 0.0042 µM [rising, full curve, poor fit] | Potency [3] 33.2 µM [cytotoxic, single point] | Potency [4] 37.2 µM [cytotoxic, single point] | Potency [14] 33.2 µM [cytotoxic, single point] | Potency [15] 26.4 µM [cytotoxic, partial curve, poor fit] | Potency [16] 33.2 µM [cytotoxic, single point] | Potency [8] 33.2 µM [cytotoxic, single point] | Potency [10] 26.4 µM [cytotoxic, single point] | Potency [11] 33.2 µM [cytotoxic, single point]

N=c1ccn2c(n1)O[C@H]1[C@@H](O)[C@@H](CO)O[C@H]12
inconclusive: Potency [1] 2.09 µM [cytotoxic, full curve] | Potency [2] 10.5 µM [cytotoxic, partial curve] | Potency [3] 5.9 µM [cytotoxic, partial curve, poor fit] | Potency [15] 9.35 µM [cytotoxic, full curve, poor fit] | Potency [5] 0.0935 µM [rising, full curve] | Potency [9] 13.2 µM [cytotoxic, partial curve] | Potency [10] 23.5 µM [cytotoxic, partial curve]
inactive: Potency [12] | Potency [16] | Potency [8]

Remaining list, next part

O=C(O)[C@H](CC(=O)N1C[C@@H]2CCCC[C@H]2C1)Cc1ccccc1
inactive: Potency [1] | Potency [13] | Potency [4] | Potency [5] | Potency [8]
inconclusive: Potency [2] 0.0033 µM [rising, full curve] | Potency [3] 1.48 µM [rising, full curve, poor fit] | Potency [14] 2.96 µM [rising, full curve, poor fit] | Potency [6] 0.0372 µM [rising, full curve, poor fit] | Potency [7] 5.9 µM [rising, partial curve, poor fit] | Potency [10] 0.0074 µM [rising, full curve, poor fit] | Potency [11] 0.0066 µM [rising, full curve, poor fit]

CCOC1OC(=O)C[C@H]1NC(=O)[C@@H]1CCCN1C(=O)[C@@H](NC(=O)c1ccc(N)c(Cl)c1)C(C)(C)C (some centres undefined)
inactive: Potency [1] | Potency [12] | Potency [15] | Potency [16] | Potency [7] | Potency [9]
active: Potency [2] 18.7 µM | Potency [14] 29.6 µM
inconclusive: Potency [13] 0.235 µM [rising, full curve, poor fit] | Potency [5] 0.0023 µM [rising, full curve, poor fit] | Potency [6] 9.35 µM [cytotoxic, full curve, poor fit] | Potency [8] 0.0469 µM [rising, full curve, poor fit] | Potency [10] 33.2 µM [cytotoxic, single point]

CCC[C@@H]1C[C@@H](C(=O)N[C@@H]([C@H]2O[C@H](SC)[C@H](O)[C@@H](O)[C@H]2O)[C@@H](C)O)N(C)C1
inactive: Potency [2] | Potency [15] | Potency [5]
inconclusive: Potency [1] 0.0235 µM [cytotoxic, full curve, poor fit] | Potency [4] 0.0012 µM [cytotoxic, full curve, poor fit] | Potency [6] 0.0033 µM [cytotoxic, full curve, poor fit] | Potency [7] 16.6 µM [cytotoxic, partial curve, poor fit] | Potency [8] 0.743 µM [cytotoxic, full curve, poor fit]

O=C(O)CCCCCC(=O)NN=C1CCCC1
active: viability (% of DMSO) [15] 136%
inactive: Potency [12] | Potency [2] | Potency [14] | Potency [6] | Potency [7] | Potency [11]
inconclusive: Potency [1] 18.7 µM [cytotoxic, partial curve, poor fit] | Potency [5] 0.0037 µM [rising, full curve, poor fit] | Potency [8] 0.0187 µM [rising, full curve, poor fit] | Potency [9] 37.2 µM [cytotoxic, single point]

CCCS(=O)c1ccc2nc(NC(=O)OC)[nH]c2c1 (centres undefined)
inconclusive: Potency [1] 33.2 µM [cytotoxic, single point] | Potency [3] 0.0148 µM [rising, full curve, poor fit] | Potency [15] 0.0469 µM [rising, full curve, poor fit] | Potency [5] 14.8 µM [cytotoxic, partial curve, poor fit] | Potency [16] 18.7 µM [cytotoxic, partial curve] | Potency [7] 16.6 µM [cytotoxic, partial curve, poor fit] | Potency [9] 16.6 µM [cytotoxic, partial curve] | Potency [10] 26.4 µM [cytotoxic, single point]
inactive: Potency [2] | Potency [6] | Potency [11]
active: Potency [8] 11.8 µM

OC[C@H]1O[C@@H](n2cnc3c2NC=NC[C@@H]3O)C[C@H]1O
active: Potency [8] 23.5 µM | Potency [11] 13.2 µM
inconclusive: Potency [12] 20.9 µM [cytotoxic, partial curve] | Potency [13] 14.8 µM [cytotoxic, partial curve, poor fit] | Potency [16] 0.833 µM [cytotoxic, partial curve, poor fit] | Potency [10] 23.5 µM [cytotoxic, single point]
inactive: Potency [1] | Potency [2] | Potency [14] | Potency [15] | Potency [5]

COC(=O)Nc1ccc(-c2nc(N3CCOCC3)c3cnn(C4CCN(C(=O)OC)CC4)c3n2)cc1
active: Potency [14] 0.469 µM | Potency [15] 0.059 µM | Potency [7] 0.0935 µM
inconclusive: Potency [1] 0.0372 µM [cytotoxic, full curve] | Potency [2] 0.743 µM [cytotoxic, full curve] | Potency [4] 6.62 µM [cytotoxic, partial curve] | Potency [6] 0.235 µM [cytotoxic, full curve]
